The results in this text go back to US20150111954, “LIN28/LET-7 CRYSTAL STRUCTURES, PURIFICATION PROTOCOLS, AND MOLECULAR PROBES SUITABLE FOR SCREENING ASSAYS AND THERAPEUTICS” (PRESIDENT AND FELLOWS OF HARVARD UNIVERSITY, published 2015).

For part of these data: A weaker result is weaker than the reference pair of the same experiment. For part of these data: Tags and fusion partners may be left off the protein sequences shown. For part of these data: For at least one entry, the source does not settle the construct or the ends of the probe. For part of these data: A negative result means that nothing was seen under these conditions.

Holding throughout (experiment): EMSA
(In general: A gel shift assay detects complexes by their altered migration in electrophoresis.)

The target of data set [1] is T1, Lin28a isolated CCHCx2 (Mus musculus) (UniProt Q8K3Y3).
T1 sequence (looked up): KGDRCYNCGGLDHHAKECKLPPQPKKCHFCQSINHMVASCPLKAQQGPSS
The conditions noted are these: high-affinity binding abolished without CSD; purified recombinant protein; protein details: His6 removed by TEV; label: 5'-32P.

The target in data set [2] is Lin28a (16-184) with linker deletion longer than 9 residues internal linker deletion of more than 9 residues (Mus musculus) (UniProt Q8K3Y3). The conditions noted are these: deletion beyond 9 linker residues prevents complex formation; purified recombinant protein; protein details: His6 removed by TEV; label: 5'-32P.
The target of data set [3] is T2, Lin28a isolated CSD (Mus musculus) (UniProt Q8K3Y3).
T2 sequence (looked up): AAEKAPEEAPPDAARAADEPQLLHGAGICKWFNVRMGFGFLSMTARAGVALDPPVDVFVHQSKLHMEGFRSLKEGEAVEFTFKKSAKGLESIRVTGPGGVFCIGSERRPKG
To be noted: high-affinity binding abolished without CCHCx2; purified recombinant protein; protein details: His6 removed by TEV; label: 5'-32P.

“UUAGGGCAGAGAUUUUGCCCACAAGGAGUU [preE-let-7d]”: the binding result in data set [1] was “binds more weakly”; in data set [2] it was “no binding”; in data set [3], “binds more weakly”.
